Record: PubChem BioAssay AID743454 (Peter MacCallum Cancer Centre, 2014)
In all, the deposit lists about 18,000 reagents; below is an unselected part. In the full data, 450 (2.5%) are marked active. 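Single biological run; no consistent viability z cut-off exists, so the class columns, not z-scores, define the calls.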 Reagents against one gene are numbered here. No sequences are given here.

Aim: 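Genes whose loss kills vorinostat-resistant colon cancer cells under vorinostat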 (primary screen)
Cells: human HCT116-VR colon cancer cells, selected for vorinostat resistance
Reagent: siRNA pool against human genes, 40 nM siRNA pool
Time to read-out: vorinostat for 24 h, read-out about 72 h after transfection
Conditions: vorinostat at 2.5 µM final
Detection: 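Cell viability by CellTiter-Fluor and caspase 3/7 activity by luminescence, each scaled to mock wells per plate, duplicates averaged, then robust z-scored over all plates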
Scale: viability robust z-score: higher = more viable cells than screen typical; caspase robust z-score: higher = more caspase 3/7 activity than screen typical
Hit rule: 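Hits are knock-downs in viability class RV1/RV2 or caspase class CA1/CA2, excluding ones that killed cells in the no-drug cell-count arm; hits then retested with single siRNAs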

| target gene | reagent | viability hit class | caspase hit class | viability robust z-score | caspase robust z-score | outcome |
| --- | --- | --- | --- | --- | --- | --- |
| COMMD9 | 1 | no change | no change | 0.16 | -0.55 | inactive |
| COMMD9 | 2 | no change | no change | 1.02 | -0.1 | inactive |
| RTKN | 1 | no change | CA1 (caspase activation) | -1.19 | 5.64 | active |
| EMC1 | 1 | no change | no change | 1.77 | 2.68 | inactive |
| MYD88 | 1 | no change | no change | -0.72 | -0.1 | inactive |
| ANO1 | 1 | no change | CA2 (caspase activation) | -2.72 | 5.61 | active |
| UBE3A | 1 | no change | no change | -1.85 | 3.02 | inactive |
| ECEL1 | 1 | no change | no change | -0.84 | 0.8 | inactive |
| PDPN | 1 | no change | no change | 1.36 | 0.42 | inactive |
| CT47A4 | 1 | no change | no change | -0.44 | 2.62 | inactive |
| LUZP1 | 1 | no change | no change | -0.44 | 0.22 | inactive |
| TBX10 | 1 | no change | no change | 0.7 | 1.29 | inactive |
| SRP14 | 1 | no change | no change | 1.49 | 1.94 | inactive |
| NSRP1 | 1 | no change | no change | -1.77 | 2.06 | inactive |
| FOXR1 | 1 | no change | no change | 1.27 | -0.46 | inactive |
| BPIFA2 | 1 | no change | no change | 0.22 | -1.16 | inactive |
| HMGA2 | 1 | no change | no change | -1.04 | 0.4 | inactive |
| SLC17A5 | 1 | no change | no change | 0.38 | 0.18 | inactive |
| GABPA | 1 | no change | no change | 0.56 | 0.22 | inactive |
| CLCA4 | 1 | no change | no change | -0.34 | -0.57 | inactive |
| ANKK1 | 1 | no change | no change | 0.24 | 0.02 | inactive |
| CASTOR1 | 1 | no change | no change | 0.66 | -0.16 | inactive |
| WSB2 | 1 | no change | no change | 0.08 | 0.78 | inactive |
| MYOM2 | 1 | no change | no change | 0.86 | 0.08 | inactive |
| HENMT1 | 1 | no change | no change | -0.39 | -0.87 | inactive |
| SMAGP | 1 | no change | no change | -0.42 | -0.76 | inactive |
| MAMDC2 | 1 | no change | no change | 0.77 | -0.26 | inactive |
| KIN | 1 | no change | no change | 0.54 | 0.18 | inactive |
| FOXE1 | 1 | no change | no change | 0.87 | 0.95 | inactive |
| VPS18 | 1 | no change | no change | -0.78 | -0.86 | inactive |
| LMAN1 | 1 | no change | no change | 1 | -0.24 | inactive |
| PAM16 | 1 | no change | no change | -0.24 | -0.71 | inactive |
| GK5 | 1 | no change | no change | -0.36 | 0.2 | inactive |
| OPA1 | 1 | no change | no change | 0.52 | -0.66 | inactive |
| ZNF264 | 1 | no change | no change | 0.62 | 0.62 | inactive |
| RAB5C | 1 | no change | no change | 0.22 | -0.32 | inactive |
| ZPBP | 1 | no change | no change | -0.01 | 2.1 | inactive |
| COPB2 | 1 | no change | no change | -3.95 | 3.3 | inactive |
| POLE3 | 1 | no change | no change | -2.38 | 0.48 | inactive |
| CARMIL3 | 1 | no change | no change | -0.94 | 0.78 | inactive |
| CA5B | 1 | no change | no change | -0.5 | -0.27 | inactive |
| CHTOP | 1 | no change | no change | 0.44 | -0.5 | inactive |
| ANKRD49 | 1 | no change | no change | 0.64 | -0.34 | inactive |
| DUSP1 | 1 | no change | no change | -0.7 | 0.2 | inactive |
| RPL24 | 1 | no change | no change | -4.83 | -1.64 | inactive |
| HOXD4 | 1 | no change | no change | 1.27 | -0.44 | inactive |
| WT1-AS | 1 | no change | no change | 1.34 | -0.17 | inactive |
| GGA3 | 1 | no change | no change | 0.34 | -0.86 | inactive |
| OR10P1 | 1 | no change | no change | -0.57 | -0.82 | inactive |
| KDM2A | 1 | no change | no change | -0.8 | 1.57 | inactive |
| KIF1C | 1 | no change | no change | -0.59 | 4.33 | inactive |
| TMCO4 | 1 | no change | no change | -0.19 | -0.53 | inactive |
| SYT14P1 | 1 | no change | no change | 0.09 | 0.04 | inactive |
| ICAM2 | 1 | no change | no change | -1.48 | -0.3 | inactive |
| TDRD12 | 1 | no change | no change | -1.25 | -0.56 | inactive |
| CMC2 | 1 | no change | no change | -0.52 | -0.58 | inactive |
| RARS2 | 1 | no change | CA1 (caspase activation) | -0.6 | 5.49 | active |

An excerpt from above, limited to “viability hit class”:
HENMT1	no change
SMAGP	no change
MAMDC2	no change
KIN	no change
FOXE1	no change
VPS18	no change
